# Measurements as given in PubChem BioAssay AID1487 (National Center for Advancing Translational Sciences (NCATS), 2009).
# The list shows a part of the results. Further columns of the screen follow, without active or inactive calls. Compounds called inactive in the main read-out are mostly missing here. Potencies come from curve fits of mixed quality, noted in brackets.
# Test: qHTS Assay for Modulators of Lamin A Splicing
# Settings: HeLa LMNA splicing GFP/RFP minigene ratio, 48 h
# Summary of the method: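 S3 HeLa cells stably expressing lamin A-EGFP splicing minigene plus DsRed2, 600 cells/well, 48 h compound exposure at 37C. Laser-scanning cytometry; analysed as GFP (500-530 nm)/RFP (575-640 nm) total intensity ratio; 0.5% DMSO vehicle.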
# [1] = measured here: RFP viability control channel
# [2] = measured here: GFP splicing reporter channel
Structure (SMILES),AC50 [1],AC50 [2]
C/C(=N/NC(=S)Nc1ccccc1)c1ccc2c(c1)OCO2,"35.5 µM [rising, single point]",
COc1cc(O)c(C(=O)c2ccccc2)cc1O,"22.4 µM [falling, single point]","17.8 µM [falling, single point]"
Cc1c(C(=O)NCc2cccc(Cl)c2)sc2nc3n(c(=O)c12)CCCC3,"0.0158 µM [falling, full curve, poor fit]",
Cc1ccc2c(c1)c(C)c(C)n2CC(O)Cn1nc(C)c(Br)c1C (stereo not given),"15.8 µM [rising, partial curve]","20 µM [rising, partial curve]"
Cc1ccccc1-c1nnc(SCC(=O)N(CC(C)C)c2c(N)n(CC(C)C)c(=O)[nH]c2=O)n1C,,"0.02 µM [rising, full curve, poor fit]"
C=CCOC(=O)C1=C(C)NC(=O)NC1/C=C/c1ccccc1OC (stereo not given),,"0.2 µM [falling, full curve, poor fit]"
COc1ccc([N+](=O)[O-])cc1NC(=O)CSCc1cc(C)cc(C)c1,"12.6 µM [rising, partial curve]",
CCN(CC)CCCNC(=O)c1ccc(Cn2c(SCc3ccccc3)nc3cccnc32)cc1,,"39.8 µM [falling, partial curve, poor fit]"
Cn1c(=O)n(Cc2c(F)cccc2Cl)c(=O)c2c1nc1n2CCN1c1ccc(F)cc1,"2.24 µM [rising, full curve, poor fit]",
Nc1ccc2nc(-c3ccccc3)sc2c1,,"0.398 µM [rising, full curve, poor fit]"
Cc1cc(CNC(=O)[C@H](C)[C@@H]2C[C@@]2(C)[C@@H](NC(=O)OCc2ccccc2)c2ccccc2)nn1C,"0.112 µM [rising, full curve, poor fit]",
O=C(CN1CCN(CCC(=O)Nc2ccccc2F)CC1)Nc1ccc(Cl)cc1,"17.8 µM [rising, single point]","12.6 µM [rising, single point]"
COc1ccc2[nH]cc(CCNc3ncnc4ccc(-c5c(C)noc5C)cc34)c2c1,,"35.5 µM [falling, single point]"
Nc1nnc(-c2cc3c(ccc4ccccc43)oc2=O)s1,"10 µM [rising, partial curve, poor fit]",
O=C1c2oc3ccc(Cl)cc3c(=O)c2C(c2ccco2)N1CCN1CCOCC1 (stereo not given),"35.5 µM [rising, single point]",
CCN1CCN(c2ccc([N+](=O)[O-])c(Sc3nc4ccccc4[nH]3)c2)CC1,"8.91 µM [rising, partial curve]","31.6 µM [falling, single point]"
CC(C)Oc1cccc(C(=O)Nc2ccc(Br)cc2F)c1,"35.5 µM [rising, single point]","22.4 µM [rising, partial curve, poor fit]"
COc1ccc(C2=NN(c3nc4ccccc4s3)C(=O)/C2=C\N(C)C)cc1,"0.631 µM [rising, full curve, poor fit]",
Cc1nn(CCC#N)c(NC(=O)c2ccccc2)c1P(=O)(Nc1ccc(Br)cc1)N1CCOCC1 (stereo not given),"0.0316 µM [falling, full curve, poor fit]","0.708 µM [falling, full curve]"
Cc1ccc(Oc2nnc(-c3ccccc3)c3ccccc23)cc1,"17.8 µM [falling, partial curve]","22.4 µM [falling, single point]"
COc1ccc(Br)cc1CNC(=O)C1CCN(S(=O)(=O)N2CCC(C)CC2)CC1,"35.5 µM [rising, single point]","35.5 µM [rising, single point]"
CO/N=C/c1cn(-c2ccc(Cl)cc2)nn1,,"22.4 µM [rising, single point]"
CNCCOc1ccccc1OC(C)C,"7.08 µM [falling, full curve, poor fit]",
Cc1ccccc1OCCc1c(C)[nH]c(=S)[nH]c1=O,,"0.0708 µM [rising, full curve, poor fit]"
CC(NC(=O)CC(c1ccccc1)c1cc(Cl)ccc1O)c1ccccc1 (stereo not given),"35.5 µM [rising, partial curve]","14.1 µM [rising, partial curve]"
CCc1ccc(/C=C/c2c[nH]c3ccccc23)[n+](CC)c1,"2.82 µM [rising, full curve]","1 µM [rising, full curve]"
COc1cc2c(cc1OC)CN(Cc1cc(=O)oc3c(C)c(C)ccc13)CC2,"35.5 µM [rising, single point]",

# Record cards, as listed above.
# Cn1c(=O)n(Cc2c(F)cccc2Cl)c(=O)c2c1nc1n2CCN1c1ccc(F)cc1 in the list: AC50 [1]: 2.24 µM [rising, full curve, poor fit]
# COc1ccc(C2=NN(c3nc4ccccc4s3)C(=O)/C2=C\N(C)C)cc1 in the list: AC50 [1]: 0.631 µM [rising, full curve, poor fit]
# O=C(CN1CCN(CCC(=O)Nc2ccccc2F)CC1)Nc1ccc(Cl)cc1 in the list: AC50 [1]: 17.8 µM [rising, single point]; AC50 [2]: 12.6 µM [rising, single point]
# COc1ccc2[nH]cc(CCNc3ncnc4ccc(-c5c(C)noc5C)cc34)c2c1 in the list: AC50 [2]: 35.5 µM [falling, single point]

# Further results

Structure (SMILES),AC50 [1],AC50 [2]
O=C(/C=C/c1ccc2c(c1)OCCCO2)c1ccc2ccccc2c1O,"35.5 µM [falling, single point]",
Cc1ccc(N(C(=O)c2cc3ccccc3oc2=O)C2C=CS(=O)(=O)C2)cc1 (stereo not given),"10 µM [rising, partial curve]",
O=C(N=Nc1c(O)[nH]c2ccccc12)c1cc(NS(=O)(=O)c2cccs2)cc(NS(=O)(=O)c2cccs2)c1,"11.2 µM [falling, single point]",
O=C(/C=C\c1ccc2c(c1)OCO2)Nc1c2c(nn1-c1ccc(Cl)cc1)CSC2,"17.8 µM [rising, partial curve]","10 µM [rising, partial curve, poor fit]"
COC(=O)CNC(c1ccccc1Cl)c1cc(Br)ccc1NC(=O)CCN1CCOCC1 (stereo not given),"22.4 µM [falling, single point]","15.8 µM [falling, single point]"
COc1ccc(C(=O)Nc2ccc(N3CCC(C)CC3)cc2)cc1Br,"0.0708 µM [rising, full curve, poor fit]",
CCOC(=O)c1cc2c(ccn2C)n1CC(=O)N1CCN(c2ccccc2OC)CC1,"35.5 µM [rising, single point]",
Cc1ccc(NC(=O)c2ccc(C(C)(C)C)cc2)cc1[N+](=O)[O-],"35.5 µM [rising, single point]","12.6 µM [rising, partial curve]"
O=C(Nc1sc2c(c1C(=O)O)CCC2)c1cccs1,"12.6 µM [rising, single point]","10 µM [rising, partial curve, poor fit]"
Oc1c(C(c2ccccn2)N2CCOCC2)ccc2cccnc12 (stereo not given),"0.891 µM [falling, full curve]","0.891 µM [falling, full curve]"
O=C(C1CCCN(S(=O)(=O)c2cccc3nonc23)C1)N1CCC(Cc2ccccc2)CC1 (stereo not given),"11.2 µM [rising, partial curve]","1.58 µM [rising, full curve, poor fit]"
O=C(Nc1ccccc1N1CCN(c2ccccc2)CC1)c1cccc(F)c1,"22.4 µM [rising, single point]",
COc1cc(C)nc(N2CCCC(C(=O)Nc3cccc(Cl)c3C)C2)n1 (stereo not given),"4.47 µM [rising, single point]",
N=C(N)SCc1cn(-c2ccccc2)nc1-c1ccc(Br)cc1,"8.91 µM [falling, partial curve, poor fit]","0.355 µM [falling, partial curve, poor fit]"
Cc1ccc(NC(=O)c2c(C(F)(F)F)nn(C)c2SCc2ccc(Cl)cc2)cc1C,,"28.2 µM [rising, single point]"
CS(=O)(=O)N(Cc1ccc(C(=O)NCCSc2ccccn2)cc1)c1ccccc1,"5.62 µM [rising, full curve]",
COC(=O)c1ccc(=O)n(CC(=O)c2ccc(Cl)cc2)c1,"35.5 µM [rising, single point]",
Cc1cc(NC(=O)c2cccc(S(=O)(=O)N3CC(c4ccccc4)CC3=O)c2)no1 (stereo not given),"12.6 µM [rising, partial curve]",
CCOc1ccc(C2CC(=O)Nc3nc(SCc4ccccc4C)[nH]c(=O)c32)cc1OC (stereo not given),"11.2 µM [falling, partial curve]","14.1 µM [falling, partial curve, poor fit]"
CCC(C)/C(C)=N/NC(=O)CSc1nc2ccccc2[nH]1 (stereo not given),"3.98 µM [rising, partial curve, poor fit]",
COc1ccc(-c2cc(-c3ccccc3)n[nH]2)c(O)c1,,"35.5 µM [falling, single point]"
CN(CC(=O)Nc1ccc(N2CCOCC2)cc1)CC(=O)Nc1ccc(C(F)(F)F)cc1,"28.2 µM [falling, partial curve]","11.2 µM [falling, partial curve]"
Cc1[nH]c2ccccc2c1/C=C/C(=O)c1ccccc1,"25.1 µM [rising, single point]",
CC1(c2ccc3ccccc3c2)NC(=O)N(CC(=O)NCc2cccs2)C1=O (stereo not given),"14.1 µM [rising, partial curve]",
Cc1c(Cl)cccc1NC(=O)Cn1c(=O)cc(C)c2c(C)nn(-c3cccc(F)c3)c21,"35.5 µM [rising, single point]",
CCCNC(=O)Cn1nc(-c2ccc(C)cc2)c2cnc3ccc(CC)cc3c21,"22.4 µM [falling, partial curve, poor fit]","7.94 µM [falling, partial curve, poor fit]"
CCCc1nc2ccccc2c(C(=O)OCC(=O)NCc2ccc3c(c2)OCO3)c1CC,"31.6 µM [rising, single point]","12.6 µM [rising, partial curve, poor fit]"
